Sequences and labels used below:
T1: Human CD112R expressed on cells (human, UniProt Q6DKI7 1-326)
T1 construct: whole, on cells; also called HuCD112R; hCD112R
T1 sequence (looked up): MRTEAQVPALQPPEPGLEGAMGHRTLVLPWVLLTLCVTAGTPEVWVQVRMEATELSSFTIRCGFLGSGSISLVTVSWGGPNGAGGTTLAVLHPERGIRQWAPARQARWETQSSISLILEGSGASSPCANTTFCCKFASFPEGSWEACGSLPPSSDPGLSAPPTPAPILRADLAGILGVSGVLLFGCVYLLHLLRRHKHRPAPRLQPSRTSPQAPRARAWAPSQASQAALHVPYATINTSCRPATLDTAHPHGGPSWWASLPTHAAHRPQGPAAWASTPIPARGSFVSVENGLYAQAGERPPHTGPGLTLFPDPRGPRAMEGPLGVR

T2: Human CD112R (PVRIG) (human, UniProt Q6DKI7 41-171, limits assumed)
T2 sequence (looked up): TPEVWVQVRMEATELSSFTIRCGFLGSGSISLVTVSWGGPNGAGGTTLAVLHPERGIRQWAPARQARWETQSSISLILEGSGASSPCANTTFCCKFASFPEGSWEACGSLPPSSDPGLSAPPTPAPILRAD

B1: anti-CD112R mAb clone 13 (murine, hybridoma) (antibody, mouse IgG1, V domains shown)
VH: QVQLQQPGAELVKPGTSVKLSCKASGYNFTSYWINWVKLRPGQGLEWIGDIYPGSYIPNYNEKFKNKATLTVDTSSSTAYMQLTSLASEDSALYYCAGGYFDVWGAGTTVTVSS
VL: DIVMTQSPSSLSVSAGEKVTMSCKSSQSLLNSGNQKNYLAWYQQKPGQPPKLLIYGASTRESGVPDRFTGSGSGTDFTLTISSVQAEDLAVYYCQNDHSYPYTFGGGTKLEIK
B2: Clone 15 (antibody, V domains shown)
VH: B1 VH with Y52F, I57S, E62K, N66R, T84S
VL: B1 VL with N34S, S83F
B3: chimeric clone-13(N31S)-hIgG1 (VH0K0) (antibody, V domains shown)
VH: B1 VH
VL: B1 VL with N31S
notes: Chimeric, human IgG1; Light chain with N31S (deamidation removal), also denoted N27dS by Kabat numbering; also called clone N31S; VH0Vk0
B4: Clone-13-hIgG1 (antibody, V domains shown)
VH: B1 VH
VL: B1 VL
notes: Chimeric antibody with human IgG1 constant region; also called chimeric clone (clone 13)
B5: H11K2 (full humanized antibody) (antibody, V domains shown)
VH: QVQLVQSGAEVKKPGSSVKVSCKASGYTFTSYWINWVRQAPGQGLEWIGDIYPGSYIPNYNEKFKNRATLTVDTSASTAYMELSSLRSEDTAVYYCAGGYFDVWGQGTTVTVSS
VL: DIVMTQSPDSLAVSLGERATINCKSSQSLLSSGNQKNYLAWYQQKPGQPPKLLIYGASTRESGVPDRFTGSGSGTDFTLTISSLQAEDVAVYYCQNDHSYPYTFGQGTKLEIK
notes: Humanized full antibody, human IgG1; also called VH11K2
B6: H11K3 (full humanized antibody) (antibody, V domains shown)
VH: B5 VH
VL: B5 VL with T69S
notes: Humanized full antibody comprising hIgG1 Fc; also called VH11K3
B7: VH9K2 (antibody, V domains shown)
VH: B5 VH with R38K, Q39L
VL: B5 VL
B8: VH10K1 (antibody, V domains shown)
VH: B5 VH with R87A, V93L
VL: B5 VL with A12S
B9: VH10K2 (full humanized antibody) (antibody, V domains shown)
VH: B5 VH with R87A, V93L
VL: B5 VL
notes: Humanized full antibody, human IgG1
B10: VH9K3 (antibody, V domains shown)
VH: B5 VH with R38K, Q39L
VL: B5 VL with T69S
B11: VH0K2 N28T (antibody, V domains shown)
VH: B1 VH with N28T
VL: B5 VL
B12: VH9K1 (antibody, V domains shown)
VH: B5 VH with R38K, Q39L
VL: B5 VL with A12S
B13: VH0 N28T Vk0 (antibody, V domains shown)
VH: B1 VH with N28T
VL: B1 VL with N31S
notes: Variant of VH0K0; also called VH0K0 N28T
B14: VH0K3 N28T (antibody, V domains shown)
VH: B1 VH with N28T
VL: B5 VL with T69S
B15: VH11K0 (antibody, V domains shown)
VH: B5 VH
VL: B1 VL with N31S
B16: VH0K1 N28T (antibody, V domains shown)
VH: B1 VH with N28T
VL: B5 VL with A12S
B17: VH10K3 (full humanized antibody) (antibody, V domains shown)
VH: B5 VH with R87A, V93L
VL: B5 VL with T69S
notes: as for B9
B18: H11K1 (full humanized antibody) (antibody, V domains shown)
VH: B5 VH
VL: B5 VL with A12S
notes: Humanized full antibody, human IgG1; also called VH11K1
B19: VH9K0 (antibody, V domains shown)
VH: B5 VH with R38K, Q39L
VL: B1 VL with N31S
B20: VH10K0 (antibody, V domains shown)
VH: B5 VH with R87A, V93L
VL: B1 VL with N31S

Positions count from the first letter of the chain named. Names and notes keep the numbering of the source. No constants are given. Whether binding was seen depends on the method and setting. Some entries that bind do so weakly or less than the wild type.

One test deals with T1, Human CD112R expressed on cells. In words: FACS, hybridoma supernatant 30 ul/well on PBMCs activated for 96 h (T cells), goat anti-mouse-647.
With B1, the binding result was “binds”. On the same count and under the same terms, with B2 the entry was “binds”.

For another test the target is unchanged. In words: FACS (APC-H), 293T hCD112R against 293T parental cells, mAb at 66 nM.
As to B3, the binding result is “binds”. Same read-out and setting: the value for B4 was “binds”.

A further test has as its target T2, Human CD112R (PVRIG). Description: SPR (Biacore); purified full antibody.
Turning to B5, the binding entry is listed as “binds”. Still for that read-out and setting: with B6 the entry was “binds”; with B7, “binds”. Still for that read-out and setting: with B8 the entry was “binds”; with B9, “binds”; with B10, “binds”. Still for that read-out and setting: with B11 the entry was “binds”; with B12, “binds”; with B13, “binds”. Consider B14, for which the binding result is recorded as “binds”. The same measure, in the same setting: with B15 the entry was “binds”; with B16, “binds”. B17: the binding entry is “binds”. Turning to B18, the binding entry is on record as “binds”. Same read-out and setting: with B19 the entry was “binds”.

As to B20, the binding entry is on record as “binds”.

In a further test the target is T1, Human CD112R expressed on cells. Description: flow cytometry, hybridoma supernatant (30 ul/well) on activated PBMCs and NK cells.
B1: the binding result is listed as “binds”. The same measure, in the same setting: with B2 the entry was “binds”.

The next test shares this target. In words: flow cytometry on 293T cells overexpressing CD112R, 0.4-99 nM.
Turning to B3, the binding result is given as “binds”. Still for that read-out and setting: the value for B4 was “binds”.

A further test shares this target. In words: flow cytometry, hybridoma supernatant on activated PBMCs and NK cells.
For B1, the binding result was “binds”. Same read-out and setting: with B2 the entry was “binds”.

The next test has the same target. Description: flow cytometry on cells with endogenous or overexpressed CD112R.
In the case of B5, the binding result was “binds”. On the same count and under the same terms, with B6 the entry was “binds”; with B9, “binds”; with B17, “binds”. The same measure, in the same setting: the value for B18 was “binds”.

The target is the same in the next test. In words: FACS, hybridoma supernatant 30 ul/well on human NK cells, goat anti-mouse-647.
With B1, the binding entry was “binds”. B2: the binding result is reported as “binds”.

The values are drawn from patent US20240270840A1 (NECTIN THERAPEUTICS, published 2024).
